Measured values: patent US20050048539A1, “Methods to monitor molecule conformation and molecule/molecule proximity” (The General Hospital Corporation, priority 2003, published 2005)

Experiment: Autofluorescence and direct effect of NSAIDs on FITC lifetime
Conditions: 375 μM S-ibuprofen; 150 μM indomethacin; 400 μM naproxen; 1 mM aspirin

For `CC(C)Cc1ccc([C@H](C)C(=O)O)cc1` [S-ibuprofen, (S)-ibuprofen], the “FITC lifetime in the presence of NSAID” value was 2372±23 psec.
With `CC(=O)Oc1ccccc1C(=O)O` [aspirin] the “FITC lifetime in the presence of NSAID” value was 2360±26 psec.
For `COc1ccc2c(c1)c(CC(=O)O)c(C)n2C(=O)c1ccc(Cl)cc1` [indomethacin], the “FITC lifetime in the presence of NSAID” value was 2367±9 psec.
In the case of `COc1ccc2cc([C@H](C)C(=O)O)ccc2c1` [naproxen], the “FITC lifetime in the presence of NSAID” value is reported as 2381±38 psec.
